Data: publication PMC5841360
These are yes or no findings as the source states them, for the method shown. In cells and extracts the contact can be indirect. Some entries that bind do so weakly or less than the wild type.

The chains behind the UniProt entries cited, without tags or fusion partners. Where a name states a change or a piece, a line headed by the entry shows the natural chain unless it says otherwise. A line that says so, or that is headed by a name, gives the form on record, which may keep a tag or linker. Residues count along the entry.
UniProt Q60598: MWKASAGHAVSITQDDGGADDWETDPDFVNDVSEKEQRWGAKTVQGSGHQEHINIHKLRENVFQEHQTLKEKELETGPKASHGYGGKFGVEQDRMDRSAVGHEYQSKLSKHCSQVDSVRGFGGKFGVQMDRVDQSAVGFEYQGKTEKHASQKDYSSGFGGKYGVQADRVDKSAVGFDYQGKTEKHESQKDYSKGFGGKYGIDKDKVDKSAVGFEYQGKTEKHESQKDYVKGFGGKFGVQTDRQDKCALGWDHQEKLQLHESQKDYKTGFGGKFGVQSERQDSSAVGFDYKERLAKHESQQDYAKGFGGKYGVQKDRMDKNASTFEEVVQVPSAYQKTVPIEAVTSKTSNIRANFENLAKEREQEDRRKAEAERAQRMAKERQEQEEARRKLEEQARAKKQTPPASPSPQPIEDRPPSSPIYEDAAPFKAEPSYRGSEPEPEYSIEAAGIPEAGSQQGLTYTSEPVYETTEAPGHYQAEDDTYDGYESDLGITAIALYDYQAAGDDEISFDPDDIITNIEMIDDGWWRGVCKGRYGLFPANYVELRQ
flag-tagged TyrM-cortactin (Y421, Y466 and Y482 mutated to phenylalanine) (Q60598, form named): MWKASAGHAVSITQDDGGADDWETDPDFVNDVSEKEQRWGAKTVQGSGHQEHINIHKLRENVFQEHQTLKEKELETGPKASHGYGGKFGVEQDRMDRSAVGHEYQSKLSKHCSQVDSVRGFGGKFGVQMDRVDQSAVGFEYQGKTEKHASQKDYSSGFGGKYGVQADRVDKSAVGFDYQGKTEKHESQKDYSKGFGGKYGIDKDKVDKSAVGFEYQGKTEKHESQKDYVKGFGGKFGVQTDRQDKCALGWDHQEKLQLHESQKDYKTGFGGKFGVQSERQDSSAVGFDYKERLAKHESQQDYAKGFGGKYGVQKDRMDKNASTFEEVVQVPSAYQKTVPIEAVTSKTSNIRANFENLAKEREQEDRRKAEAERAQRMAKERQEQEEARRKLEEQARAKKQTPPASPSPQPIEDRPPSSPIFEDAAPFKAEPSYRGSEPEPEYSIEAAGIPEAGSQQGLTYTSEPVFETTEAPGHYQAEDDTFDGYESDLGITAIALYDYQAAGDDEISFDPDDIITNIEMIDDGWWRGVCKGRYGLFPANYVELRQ
UniProt P19490, residues 19-907: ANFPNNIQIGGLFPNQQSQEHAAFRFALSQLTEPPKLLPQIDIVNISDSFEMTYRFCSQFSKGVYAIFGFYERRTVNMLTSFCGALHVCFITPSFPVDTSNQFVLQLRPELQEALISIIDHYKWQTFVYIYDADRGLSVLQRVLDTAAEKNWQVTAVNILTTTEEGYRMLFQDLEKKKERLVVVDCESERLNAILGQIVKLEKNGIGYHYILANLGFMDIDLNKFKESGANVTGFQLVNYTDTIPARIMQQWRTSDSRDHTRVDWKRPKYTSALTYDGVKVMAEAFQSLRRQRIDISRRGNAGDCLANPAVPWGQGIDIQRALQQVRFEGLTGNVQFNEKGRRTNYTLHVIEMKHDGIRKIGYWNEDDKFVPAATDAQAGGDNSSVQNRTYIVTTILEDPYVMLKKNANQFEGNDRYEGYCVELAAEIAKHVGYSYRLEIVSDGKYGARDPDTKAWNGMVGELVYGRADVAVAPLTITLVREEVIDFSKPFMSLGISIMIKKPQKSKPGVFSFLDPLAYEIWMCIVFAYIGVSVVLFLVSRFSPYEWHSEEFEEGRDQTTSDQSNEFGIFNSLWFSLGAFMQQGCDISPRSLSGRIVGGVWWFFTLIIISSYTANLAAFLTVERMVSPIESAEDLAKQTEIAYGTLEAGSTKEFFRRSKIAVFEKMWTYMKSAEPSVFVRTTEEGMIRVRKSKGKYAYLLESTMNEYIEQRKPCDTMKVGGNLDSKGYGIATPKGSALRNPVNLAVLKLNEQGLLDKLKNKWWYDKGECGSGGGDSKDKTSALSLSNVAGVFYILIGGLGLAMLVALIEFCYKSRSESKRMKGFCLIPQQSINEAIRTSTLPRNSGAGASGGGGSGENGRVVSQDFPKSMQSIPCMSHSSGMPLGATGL
UniProt P19491, residues 22-883: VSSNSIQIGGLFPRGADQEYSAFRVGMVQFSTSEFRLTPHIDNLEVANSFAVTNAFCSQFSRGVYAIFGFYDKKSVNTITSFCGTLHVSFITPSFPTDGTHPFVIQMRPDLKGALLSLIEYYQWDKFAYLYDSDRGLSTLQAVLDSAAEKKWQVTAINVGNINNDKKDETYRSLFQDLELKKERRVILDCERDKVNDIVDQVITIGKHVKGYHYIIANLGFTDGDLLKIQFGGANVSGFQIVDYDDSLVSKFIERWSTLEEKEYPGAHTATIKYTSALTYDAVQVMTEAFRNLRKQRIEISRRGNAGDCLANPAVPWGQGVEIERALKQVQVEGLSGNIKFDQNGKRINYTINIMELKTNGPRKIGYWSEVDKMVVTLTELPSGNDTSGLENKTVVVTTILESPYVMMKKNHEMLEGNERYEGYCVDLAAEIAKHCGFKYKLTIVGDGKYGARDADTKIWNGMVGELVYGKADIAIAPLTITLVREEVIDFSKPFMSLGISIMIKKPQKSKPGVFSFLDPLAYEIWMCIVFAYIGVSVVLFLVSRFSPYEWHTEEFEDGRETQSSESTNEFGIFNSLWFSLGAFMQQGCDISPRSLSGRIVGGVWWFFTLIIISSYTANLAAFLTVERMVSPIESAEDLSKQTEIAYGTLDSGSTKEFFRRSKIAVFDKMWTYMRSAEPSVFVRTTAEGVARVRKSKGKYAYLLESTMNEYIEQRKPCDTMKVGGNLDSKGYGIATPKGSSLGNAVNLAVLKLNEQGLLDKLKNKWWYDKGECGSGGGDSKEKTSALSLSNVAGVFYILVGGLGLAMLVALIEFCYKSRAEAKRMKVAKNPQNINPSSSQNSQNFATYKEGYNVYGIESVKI

Key:
[1] = molecular target: flag-tagged cortactin, wild type (HEK293) (UniProt Q60598); test: co-IP; lysates of transfected HEK293 cells immunoprecipitated with Flag tag antibody or control IgG; Western blotting; also after 10 µM PP2 or vehicle (DMSO) for 30 min before lysis
[2] = molecular target: flag-tagged TyrM-cortactin (Y421, Y466 and Y482 mutated to phenylalanine) (UniProt Q60598); test: as above
[3] = molecular target: Myc-tagged GluA1 (HEK293) (UniProt P19490); test: co-IP; lysates of transfected HEK293 cells immunoprecipitated with Myc tag antibody or control IgG; Western blotting
[4] = molecular target: Myc-tagged GluA2, full-length subunit (HEK293) (UniProt P19491); test: as above

binding [1]	binding [2]	binding [3]	binding [4]	Substance
binds	binds	–	–	Myc-tagged GluA2, full-length subunit (HEK293) (from UniProt P19491 22-883) (receptor)
–	–	no binding	binds	flag-tagged cortactin, wild type (HEK293) (from UniProt Q60598 1-546)
